From article PMC4552876 come the findings set out here.

Sequences of proteins named here, by UniProt entry; tags and fusion partners are left off. Residues count along the entry.
UniProt P56817, residues 46-501: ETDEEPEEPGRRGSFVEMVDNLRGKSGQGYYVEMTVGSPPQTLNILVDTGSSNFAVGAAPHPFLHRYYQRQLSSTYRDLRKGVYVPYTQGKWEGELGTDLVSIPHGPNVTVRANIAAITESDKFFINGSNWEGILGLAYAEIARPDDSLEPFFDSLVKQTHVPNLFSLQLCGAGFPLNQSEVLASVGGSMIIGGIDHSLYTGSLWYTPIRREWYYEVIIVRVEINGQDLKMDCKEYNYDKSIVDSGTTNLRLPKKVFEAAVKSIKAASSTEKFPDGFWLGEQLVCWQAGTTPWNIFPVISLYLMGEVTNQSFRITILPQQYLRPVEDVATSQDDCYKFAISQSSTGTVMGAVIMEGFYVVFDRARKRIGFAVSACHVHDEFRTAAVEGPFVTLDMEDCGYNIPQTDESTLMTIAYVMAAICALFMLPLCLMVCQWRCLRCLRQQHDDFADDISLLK
UniProt P56818, residues 46-501: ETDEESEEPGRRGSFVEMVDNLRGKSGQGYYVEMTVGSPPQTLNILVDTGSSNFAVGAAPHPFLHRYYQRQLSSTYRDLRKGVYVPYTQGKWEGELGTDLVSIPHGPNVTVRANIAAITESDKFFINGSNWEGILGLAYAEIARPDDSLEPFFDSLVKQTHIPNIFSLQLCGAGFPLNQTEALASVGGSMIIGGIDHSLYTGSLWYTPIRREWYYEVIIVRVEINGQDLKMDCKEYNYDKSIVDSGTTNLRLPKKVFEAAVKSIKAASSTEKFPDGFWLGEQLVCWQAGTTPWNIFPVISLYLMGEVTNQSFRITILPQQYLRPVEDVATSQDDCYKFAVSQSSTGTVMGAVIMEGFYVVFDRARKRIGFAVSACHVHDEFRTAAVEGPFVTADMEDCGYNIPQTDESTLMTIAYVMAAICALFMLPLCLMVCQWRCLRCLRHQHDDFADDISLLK

Assay [1] concerns the target Cyclin-dependent kinase 5 (Cdk5), human, transfected in HEK293T cells (human) (UniProt Q00535). In words: co-IP; lysates of HEK293T cells transfected with plasmids encoding p25 and Cdk5; immunoprecipitated with anti-Cdk5 antibody or control IgG, then immunoblot. On the technique in general: In western blotting, separated proteins are transferred to a membrane and probed.

Assay [2] addresses Cdk5, endogenous in p25 transgenic mouse hippocampus (mouse (endogenous in p25 TG mouse hippocampus)) (UniProt P49615). In words: co-IP; p25 TG mouse hippocampal lysates; immunoprecipitated with anti-Cdk5 antibody or control IgG, then immunoblot.

No constants are given. Whether binding was seen depends on the method and setting. In cells and extracts the contact can be indirect. Some binding calls cover weakened binding; strength is not graded here.

Regarding “beta-site amyloid precursor protein (APP) cleaving enzyme 1 (BACE1), endogenous in HEK293T cells (from UniProt P56817 46-501)”, the binding entry in assay [1] is reported as “binds”.
As for “BACE1, endogenous in p25 transgenic mouse hippocampus (from UniProt P56818 46-501)”, the binding result in assay [2] is on record as “binds”.
